Experimental data as given in paper PMC5788634.
No constants are given. Whether binding was seen depends on the method and setting. For some of these results: Binding seen in cells or lysates may run through a third protein. Some entries that bind do so weakly or less than the wild type. Sequences can lack the tags named with a protein.

The chains behind the UniProt entries cited, without tags or fusion partners. Residues count along the entry.
UniProt P19338: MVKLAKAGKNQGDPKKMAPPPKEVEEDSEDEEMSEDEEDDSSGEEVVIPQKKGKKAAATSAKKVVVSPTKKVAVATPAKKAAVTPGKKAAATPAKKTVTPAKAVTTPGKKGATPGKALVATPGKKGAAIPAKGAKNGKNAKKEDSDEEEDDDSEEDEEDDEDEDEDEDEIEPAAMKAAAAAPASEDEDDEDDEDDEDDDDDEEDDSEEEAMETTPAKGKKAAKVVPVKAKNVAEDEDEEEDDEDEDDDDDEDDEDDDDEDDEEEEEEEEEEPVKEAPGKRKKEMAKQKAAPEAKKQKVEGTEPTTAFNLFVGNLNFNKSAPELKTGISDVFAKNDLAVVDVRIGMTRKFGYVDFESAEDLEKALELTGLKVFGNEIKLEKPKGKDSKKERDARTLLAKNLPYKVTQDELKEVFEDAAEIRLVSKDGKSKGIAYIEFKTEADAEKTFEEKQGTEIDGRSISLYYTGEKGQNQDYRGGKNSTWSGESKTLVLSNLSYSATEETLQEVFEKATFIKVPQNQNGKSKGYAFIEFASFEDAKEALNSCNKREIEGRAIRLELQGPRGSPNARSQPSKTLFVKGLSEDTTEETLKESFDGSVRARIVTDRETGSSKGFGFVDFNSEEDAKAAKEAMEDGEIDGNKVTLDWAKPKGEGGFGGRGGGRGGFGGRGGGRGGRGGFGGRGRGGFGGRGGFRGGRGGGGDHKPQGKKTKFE
UniProt P05106, residues 27-788: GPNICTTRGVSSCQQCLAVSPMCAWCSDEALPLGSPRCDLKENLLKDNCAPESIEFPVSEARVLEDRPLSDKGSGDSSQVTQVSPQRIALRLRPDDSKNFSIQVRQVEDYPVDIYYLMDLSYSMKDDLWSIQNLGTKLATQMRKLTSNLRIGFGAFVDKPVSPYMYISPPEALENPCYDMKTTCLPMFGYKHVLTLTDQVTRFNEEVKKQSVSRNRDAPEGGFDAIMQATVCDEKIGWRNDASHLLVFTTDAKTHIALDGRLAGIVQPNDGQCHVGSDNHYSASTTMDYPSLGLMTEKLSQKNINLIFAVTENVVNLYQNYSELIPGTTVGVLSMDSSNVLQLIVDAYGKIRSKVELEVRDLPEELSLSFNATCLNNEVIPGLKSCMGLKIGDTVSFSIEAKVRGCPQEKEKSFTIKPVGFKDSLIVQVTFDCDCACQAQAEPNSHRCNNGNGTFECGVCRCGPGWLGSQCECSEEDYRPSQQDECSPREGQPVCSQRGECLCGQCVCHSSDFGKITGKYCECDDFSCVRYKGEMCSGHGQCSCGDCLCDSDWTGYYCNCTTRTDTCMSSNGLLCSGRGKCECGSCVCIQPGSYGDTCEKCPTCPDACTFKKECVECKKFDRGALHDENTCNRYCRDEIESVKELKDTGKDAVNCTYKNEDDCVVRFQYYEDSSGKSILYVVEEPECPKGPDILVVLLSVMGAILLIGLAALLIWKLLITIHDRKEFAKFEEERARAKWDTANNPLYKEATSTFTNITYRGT

T1: Recombinant human kallistatin with a his-tag (human) (UniProt P29622)
T1 sequence: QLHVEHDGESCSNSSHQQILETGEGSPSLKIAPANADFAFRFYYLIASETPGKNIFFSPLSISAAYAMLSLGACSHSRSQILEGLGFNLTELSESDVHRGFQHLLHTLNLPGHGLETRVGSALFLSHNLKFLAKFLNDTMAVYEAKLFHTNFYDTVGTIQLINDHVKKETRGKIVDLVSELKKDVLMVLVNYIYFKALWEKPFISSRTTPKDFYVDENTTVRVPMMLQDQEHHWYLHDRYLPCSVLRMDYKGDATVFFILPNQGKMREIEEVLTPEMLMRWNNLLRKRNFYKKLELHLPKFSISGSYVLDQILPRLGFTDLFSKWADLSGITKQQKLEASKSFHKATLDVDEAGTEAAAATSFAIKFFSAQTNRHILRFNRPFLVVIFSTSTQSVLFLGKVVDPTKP

B1: Recombinant human kallistatin with a his-tag (protein, UniProt P29622 21-427)
chain: T1 sequence

Tests used:
[1] = molecular target: T1, Recombinant human kallistatin with a his-tag (human); test: co-IP; HUVECs treated with kallistatin for 4 h; cell lysates precipitated with rabbit anti-kallistatin antibody (control rabbit immunoglobulin) and protein A beads, 4°C overnight; immunoblot; only the target purified
[2] = molecular target: T1, Recombinant human kallistatin with a his-tag (human); test: pull-down; his-tagged kallistatin (3 mg) on Ni-NTA affinity beads, incubated with HUVEC membrane proteins (10 mg) for 16 h at 4°C; washed with PBS; eluted fractions on SDS-PAGE; bands identified by MALDI-TOF peptide mass fingerprinting and confirmed by immunoblot; Ni-NTA beads without kallistatin as control; only the target purified
[3] = molecular target: nucleolin (human (endogenous in HUVEC)) (UniProt P19338); test: flow cytometry on cells; HUVECs transfected with siRNA (nucleolin, integrin β3, MMP2 or scrambled) for 48 h, incubated with kallistatin; cell surface kallistatin detected with anti-kallistatin antibody and Alexa Fluor 647-labeled goat IgG; only the binder purified
[4] = molecular target: nucleolin (human (endogenous in HUVEC)) (UniProt P19338); test: co-IP; kallistatin-nucleolin complex precipitated by an anti-nucleolin antibody and detected with an anti-kallistatin antibody; with increasing concentrations of soluble heparin or a 1,000-fold excess of sodium sulfate; only the binder purified

Molecule	binding [1]	binding [2]	binding [3]	binding [4]
integrin β3 (from UniProt P05106 27-788) (receptor)	binds	binds		
B1			binds	binds
